In PubChem BioAssay AID2685 (National Center for Advancing Translational Sciences (NCATS), 2010):
In all, about 320,000 compounds went through this assay and about 2,100 (0.66%) were called active. Calls come from the whole dose curve; as a rule, active = well fitted inhibition curve with a large enough effect in the signal ratio, with a control signal flat (not every such curve was filed as active); inconclusive = small, poorly fitted or top-dose-only effect, or effect the other way, or a change in a side signal; inactive = flat fitted curve, though single readings scatter; the % refers to the signal ratio. The inconclusive results got no clear call from the source. Potencies of inconclusive entries are doubtful fits and often do not repeat.
% is set by controls: 0 for no effect and ±100 for the full control effect; potency is the fitted concentration of half-maximal effect.

Assay: qHTS Assay for Lipid Storage Modulators in Drosophila S3 Cells
Conditions: BODIPY lipid droplet fluorescence, 18-24 h, cells fed with added oleic acid; lipid storage change, negative = inhibition: at 46.1 µM (top of the series) unless noted
How it was run: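 Drosophila S3 cells loaded with oleic acid (400 uM, as added) and compounds at several concentrations; lipid droplets imaged by 488-nm laser-scanning cytometry, 500–530 nm intensity and object ratio to cell channel. Percent activity normalized to 20 uM Triacsin C.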
In the case of `O=C(COC(=O)c1ccc2c(c1)OCO2)Nc1cccc(F)c1`, the lipid storage change, negative = inhibition is reported as inconclusive: 10.5%. In the case of `Cc1cc(C)cc(NC(=O)COC(=O)CCn2c(C)csc2=O)c1`, the Potency is reported as inconclusive: 0.58 µM [activator, single point]. With `CC1CCN(c2ccc3c(c2)S(=O)(=O)c2cccc(C(=O)NCc4ccc(F)cc4)c2C3=O)CC1` the Potency was inconclusive: 6.51 µM [cytotoxic, partial curve, poor fit]. For `CCCCN(CCO)c1ncnc2sc(-c3ccccc3)cc12`, the lipid storage change, negative = inhibition was inconclusive: -0.0112%. For `Cc1ccc(S(=O)(=O)NNC(=O)c2sc(NS(=O)(=O)c3ccccc3)nc2C)cc1`, the lipid storage change, negative = inhibition was inconclusive: -5.25%. With `COCCCNC(=O)Cn1c(=O)n(CC(=O)N2CCCCC2)c(=O)c2sccc21` the lipid storage change, negative = inhibition was inconclusive: 13.1%. With `Cn1c(N)c(C(=O)COC(=O)c2cc(-c3ccccc3)nc3ccccc23)c(=O)n(Cc2ccccc2)c1=O` the Potency was inconclusive: 3.26 µM [activator, partial curve]. For `CCOc1ccc(N(CC(=O)NCCSCc2ccc(C)cc2)S(C)(=O)=O)cc1`, the lipid storage change, negative = inhibition was inconclusive: -10.5%. With `O=C(Cn1cnc2ccccc21)NCCCN1CCOCC1` the lipid storage change, negative = inhibition was inconclusive: -44.8%. In the case of `Cc1cc(C(=O)Nc2c[nH]c(=O)[nH]c2=O)ccc1[N+](=O)[O-]`, the lipid storage change, negative = inhibition is reported as inconclusive: 16.3%. In the case of `COc1ccc(CCN=C(N)NS(=O)(=O)c2cccs2)cc1`, the Potency is reported as inconclusive: 29.1 µM [activator, single point]. With `CCCn1c(-c2ccccc2)cc(SC)c(C#N)c1=O` the Potency was inconclusive: 7.31 µM [rising, partial curve]. For `Cc1ccc(OCC(=O)Nc2ccc(N3CCOCC3)cc2)c([N+](=O)[O-])n1`, the Potency was inconclusive: 3.26 µM [falling, single point]. For `COc1ccc(NC(=O)CN2CCN(CC(=O)Nc3ccccc3F)CC2)c(OC)c1`, the Potency was inconclusive: 6.51 µM [rising, single point]. With `O=C(NCc1cccnc1)NC(=O)c1ccc(Cl)cc1` the lipid storage change, negative = inhibition was inconclusive: -7.29%. In the case of `O=C(N=C1SC2CS(=O)(=O)CC2N1c1ccc(F)c(Cl)c1)C1CC1` (stereo not given), the lipid storage change, negative = inhibition is reported as inconclusive: 58.6%. In the case of `O=C(Cn1cncn1)N/N=C/c1cc([N+](=O)[O-])ccc1O`, the lipid storage change, negative = inhibition is reported as inconclusive: -5.45%. With `CS(=O)(=O)N1CCN(C(=O)CSc2ccccc2)CC1` the lipid storage change, negative = inhibition was inconclusive: 23.7%. In the case of `CC(C)CNS(=O)(=O)c1ccc(CCC(=O)Nc2cc(Cl)ccc2Oc2ccccc2)cc1`, the lipid storage change, negative = inhibition is reported as inconclusive: 205%. For `COc1ccc(NC(=O)c2ccc3c(=O)n4c(nc3c2)CCCCC4)cc1`, the Potency was inconclusive: 29.1 µM [cytotoxic, single point].
